# According to the RNAGym collection of RNA variant scans (doi:10.1126/science.aae0568):
# Variants at the background level are over-represented here.
# B1: tRNA (parent)
# chain: GUUCCGUUGGCGUAAUGGUAACGCGUCUCCCUCCUAAGGAGAAGACUGCGGGUUCGAGUCCCGUACGGAACG
# Variants of: B1
# Assay: yeast fitness relative to wild type (ratio to wild type); higher = fitter; tRNA-Arg(CCU), competitive growth, 37 C, YPD
# In short: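 Genotype frequency changes were the basis for Darwinian fitness relative to wild type. The frequencies came from 100-nucleotide paired-end sequencing of gene amplicons from the start population and each end population of pooled yeast strains with tRNA-Arg(CCU) gene variants at the native locus. Competition ran in YPD at 37°C for 24 hours in six replicates, genotypes needed ≥ 100 starting reads, and estimates < 0.5 were set to 0.5.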
row,Variant,yeast fitness
1,C4A A14C A70G,≤ 0.5
2,C4A A14C G38A,≤ 0.5
3,C4A A14C U26C A36G,≤ 0.5
4,C4A A14G U26A A65U,≤ 0.5
5,C4A A15G C31G G50A,≤ 0.5
6,C4A A15U U53C A57C A70C,≤ 0.5
7,C4A A20G,0.859
8,C4A A20U U28A C31U A65U,≤ 0.5
9,C4A A21C A70C,≤ 0.5
10,C4A A21U A37C A45U G58A,≤ 0.5
11,C4A A36U G68C,≤ 0.5
12,C4A A45C,0.754
13,C4A C5A A15U C33G G38A U59G,≤ 0.5
14,C4A C5A G50C,≤ 0.5
15,C4A C5U C24G,≤ 0.5
16,C4A C5U C29G C33U U47A G51A C61U,≤ 0.5
17,C4A C5U C34U C66U,≤ 0.5
18,C4A C22U C33G A45C C49U U53G A69C,≤ 0.5
19,C4A C27A C55U,≤ 0.5
20,C4A C27G A45U C55A,≤ 0.5
21,C4A C30U A57G A65U,≤ 0.5
22,C4A C30U A70U,≤ 0.5
23,C4A C31A U32C U53C C60G,≤ 0.5
24,C4A C33G U47A,0.625

row,Variant,yeast fitness
1,C4A C49U C55A,≤ 0.5
2,C4A G6A G51C C55G,≤ 0.5
3,C4A G6A U54A U59G A65C,≤ 0.5
4,C4A G9C C30A G39A G58A,≤ 0.5
5,C4A G9C G50A G63C,≤ 0.5
6,C4A G10C C29G,≤ 0.5
7,C4A G10C C49G,≤ 0.5
8,C4A G10C G23C C24G A40U G51A A57U,≤ 0.5
9,C4A G12C U19C C24G A43U G67A,≤ 0.5
10,C4A G17A C27G C55U G63A,≤ 0.5
11,C4A G17A C27U C31U U53C A70U,≤ 0.5
12,C4A G17C C22U,≤ 0.5
13,C4A G17C G50A C60U,≤ 0.5
14,C4A G17U C46A,0.645
15,C4A G18A A20C U26G C27U,≤ 0.5
16,C4A G18A C24U C30G C34G,≤ 0.5
17,C4A G18A G25C,0.515
18,C4A G23A U53A U64C,≤ 0.5
19,C4A G25C U26C G50A U54G,≤ 0.5
20,C4A G58A,0.878
21,C4A U7A A14G G17C G52C C55U A65U,≤ 0.5
22,C4A U7A C31U,≤ 0.5
23,C4A U13G U32G G58A,≤ 0.5
24,C4A U16C G17A C55A,≤ 0.5

row,Variant,yeast fitness
1,C4A U16C U35G A45U U47C G51A,≤ 0.5
2,C4A U26A C34G G38A,≤ 0.5
3,C4A U26A U32G A43G G50A,≤ 0.5
4,C4A U32C C46A,0.697
5,C4A U35C G48C C55U G56A,0.51
6,C4A U53A,0.769
7,C4G A14C C24G U53C C62G,≤ 0.5
8,C4G A14C G48C A69U A70G,≤ 0.5
9,C4G A14C U26C,≤ 0.5
10,C4G A15C U26G G41C C55U C60G,≤ 0.5
11,C4G A15U C33A G52C G67A,≤ 0.5
12,C4G A20C C22U A43U A69C,≤ 0.5
13,C4G A20C U32A C34G A37U,≤ 0.5
14,C4G A20U C31G G51A,≤ 0.5
15,C4G A21C C27A U28G G58A G67C,≤ 0.5
16,C4G A21G G56U G58C,≤ 0.5
17,C4G A37U,0.681
18,C4G A45U A65C,≤ 0.5
19,C4G C5G C11A G38A G67A,≤ 0.5
20,C4G C5G C31A U35C,≤ 0.5
21,C4G C5U A43G,≤ 0.5
22,C4G C5U C31G G41A A43C C61U G68A,≤ 0.5
23,C4G C5U C34U,≤ 0.5
24,C4G C5U C49A G56A G63C,≤ 0.5

row,Variant,yeast fitness
1,C4G C5U G51A U53C C62U,≤ 0.5
2,C4G C5U U19A U47A,≤ 0.5
3,C4G C11A A69C,≤ 0.5
4,C4G C11G C22U G58C,≤ 0.5
5,C4G C11G C61A,≤ 0.5
6,C4G C22U C30A C34U G38C C66U,≤ 0.5
7,C4G C22U C33U,≤ 0.5
8,C4G C24A G44A A45C C49U C61G,≤ 0.5
9,C4G C29A,0.757
10,C4G C29A C34U A36U G67A,≤ 0.5
11,C4G C29U G52C C62U A69U,≤ 0.5
12,C4G C34A A36U C55G C66A,≤ 0.5
13,C4G C49U C66U,0.681
14,C4G G6A G23A A43G A69C,≤ 0.5
15,C4G G6A U47A,0.61
16,C4G G9A A14G G25C,≤ 0.5
17,C4G G9C C34A A36G A40C,≤ 0.5
18,C4G G10A U13C U32A A70C,≤ 0.5
19,C4G G12U A14C A69C,≤ 0.5
20,C4G G17A A57U U59C,≤ 0.5
21,C4G G17A C34A A43G U64C,≤ 0.5
22,C4G G18A A21G G25A,≤ 0.5
23,C4G G23A C34G G67A,≤ 0.5
24,C4G G23C C62A G68C,≤ 0.5

row,Variant,yeast fitness
1,C4G G39A A57U G67C,≤ 0.5
2,C4G G48A U59C,≤ 0.5
3,C4G U7C C27U,≤ 0.5
4,C4G U8A G12A U54A,≤ 0.5
5,C4G U8G G12A G48A A69C,≤ 0.5
6,C4G U13A A43G C46G G67A,≤ 0.5
7,C4G U13C,0.886
8,C4G U16C U28A A42G C55A C66A,≤ 0.5
9,C4G U26A C49U,≤ 0.5
10,C4G U59G,0.653
11,C4U A14C C61U A65U,≤ 0.5
12,C4U A14G A36C C46G C66U,≤ 0.5
13,C4U A15U C34G A45U U53A,≤ 0.5
14,C4U A20C C30A C55A G67A,0.53
15,C4U A20G A57U,≤ 0.5
16,C4U A20U A40U C49A G56C A65G,≤ 0.5
17,C4U A20U C46G A57U A69C,≤ 0.5
18,C4U A37U C66A,0.542
19,C4U A42G G67U,≤ 0.5
20,C4U A45C G51A,0.501
21,C4U A45U G68C,0.7
22,C4U C5A U59C C60G,≤ 0.5
23,C4U C5G A37U G44A A70G,≤ 0.5
24,C4U C11G A45U A70C,≤ 0.5

row,Variant,yeast fitness
1,C4U C11G C34U C55U,≤ 0.5
2,C4U C11U A15G C34U U54C C55U,0.501
3,C4U C11U A15G C34U U54C C55U G67U A69C,≤ 0.5
4,C4U C22G A37U C62G,≤ 0.5
5,C4U C24U C27U C30A G58A A70G,≤ 0.5
6,C4U C27A A40C A65C,≤ 0.5
7,C4U C27U C49U G52A C60A,≤ 0.5
8,C4U C30G C31G C62A A65C,≤ 0.5
9,C4U C31G U47C G48C,≤ 0.5
10,C4U C33A U35A A43U,≤ 0.5
11,C4U C33U,0.789
12,C4U C33U G44A C66U,≤ 0.5
13,C4U G6A U8G U26C U28A A65U,≤ 0.5
14,C4U G6C A69U,≤ 0.5
15,C4U G10A C11G A20G C27G C29U A65U,≤ 0.5
16,C4U G10C A14C A37C A45C,≤ 0.5
17,C4U G10C G48C,≤ 0.5
18,C4U G10C G48C G63C G67A,≤ 0.5
19,C4U G17C A43U,≤ 0.5
20,C4U G18A A21C A43C G48A G52A G63A,≤ 0.5
21,C4U G23C C49G G58C,≤ 0.5
22,C4U G25A C66U,0.75
23,C4U G39C C55U,≤ 0.5
24,C4U U7A A36U C60G,≤ 0.5

row,Variant,yeast fitness
1,C4U U16G C66G,≤ 0.5
2,C4U U26A G38A G63C,≤ 0.5
3,C4U U32A C62G A70U,≤ 0.5
4,C4U U32C C34U G38A C66A A69U,≤ 0.5
5,C5A A14G A15G C22G A37U,≤ 0.5
6,C5A A14U A21G G52A,0.533
7,C5A A15U C22G A40C C49G,≤ 0.5
8,C5A A20U A21G C55U C61U A65G,≤ 0.5
9,C5A A21C G67A,≤ 0.5
10,C5A A36G G44A U47C A70U,≤ 0.5
11,C5A A42C U47A C49A G51U,≤ 0.5
12,C5A A45C C60A G68A,≤ 0.5
13,C5A C11G G41C G56A,≤ 0.5
14,C5A C22G C27G A36U A40C A65U,≤ 0.5
15,C5A C24G U26A C29G U32A A65U,≤ 0.5
16,C5A C24G U35G,≤ 0.5
17,C5A C33U C55G A65G,≤ 0.5
18,C5A C34G A57G A65G C66U,≤ 0.5
19,C5A C46G,0.719
20,C5A G12A G18A C27G C46G A65G,≤ 0.5
21,C5A G17A C46A C55A,≤ 0.5
22,C5A G18C C46U,0.557
23,C5A G25A U28C C31U A40C A42G,≤ 0.5
